Laboratory results reported in PubChem BioAssay AID2685 (National Center for Advancing Translational Sciences (NCATS), 2010).
The list shows a part of the results. These are further read-outs of the screen, such as a control signal, another cell line or another target. No call is given for them. Compounds called inactive in the main read-out are mostly missing here. Potencies come from curve fits of mixed quality, noted in brackets.

Assay: qHTS Assay for Lipid Storage Modulators in Drosophila S3 Cells;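 for cell number change: cells counted by Cell Tracker Red CMTPX staining in the red channel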
Conditions: BODIPY lipid droplet fluorescence, 18-24 h; for cell number change: measured here: cell count max response, cells fed with added oleic acid
Summary of the method: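 Drosophila S3 cells loaded with oleic acid (400 uM, as added) and compounds at several concentrations; lipid droplets imaged by 488-nm laser-scanning cytometry, 500–530 nm intensity and object ratio to cell channel. Percent activity normalized to 20 uM Triacsin C.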

[1] = measured here: lipid fluorescence (Fed channel) AC50, cells fed with added oleic acid
[2] = measured here: cell number channel AC50, cells fed with added oleic acid

CCOC(=O)CC1CCCCN1C(=O)CCCn1nnnc1CN1CCC(C)CC1 (stereo not given)
cell number change: -17.7%
AC50 [1]: 29.1 µM [falling, single point]

O=C(CCC(=O)Nc1ccccc1)N/N=C/C=C/c1ccccc1
cell number change: -5.3%
AC50 [1]: 0.731 µM [falling, single point]

COc1ccc2c(COC(=O)CCS(=O)(=O)c3ccccc3)cc(=O)oc2c1
cell number change: 12.8%

O=C(NCCCN1CCCC1=O)c1nnc(Cc2c(F)cccc2Cl)o1
cell number change: -29.1%
AC50 [1]: 14.6 µM [falling, partial curve]

COc1ccc(/C=N/Nc2nc(N3CCCCC3)nc(N3CCCCC3)n2)cc1[N+](=O)[O-]
cell number change: 47.3%
AC50 [2]: 9.2 µM [rising, partial curve]
AC50 [1]: 1.64 µM [rising, partial curve]

Cc1ccc(/C=C2/SC(=S)N(CCC(=O)N3CCN(c4ccccc4)CC3)C2=O)cc1
cell number change: -73%
AC50 [2]: 32.6 µM [falling, single point]
AC50 [1]: 29.1 µM [falling, partial curve]

CCOC(=O)C(NC(=O)Nc1ncccn1)(Oc1ccccc1)C(F)(F)F (stereo not given)
cell number change: -9.71%

CC(=O)Nc1ccc(S(=O)(=O)NCC(=O)NCCCc2ccccc2)cc1
cell number change: 18.5%
AC50 [1]: 9.2 µM [falling, partial curve, poor fit]

Cc1ccc(NC(=O)COC(=O)CN2CSCC2=O)cc1C
cell number change: -0.135%

CCOc1ccc(S(=O)(=O)N2CCOCC2)cc1NC(=O)CN1C(=O)NC2(CCCCC2)C1=O
cell number change: -20.6%
AC50 [1]: 0.00651 µM [falling, full curve, poor fit]

CCS(=O)(=O)N1CCC(C(=O)NCc2ccc(F)cc2)CC1
cell number change: 14.4%

OCc1cn(-c2ccccc2)nc1-c1cccnc1
cell number change: 95.1%
AC50 [2]: 20.6 µM [rising, single point]
AC50 [1]: 18.4 µM [rising, partial curve]

CCc1ccc(/C=C2/SC(=S)N(CCCC(=O)Nc3ccccc3C(=O)O)C2=O)cc1
cell number change: 23.8%

Cc1ccccc1N(CC(=O)NC1CCCCC1)C(=O)CCC(=O)Nc1nccs1
cell number change: 10%
AC50 [1]: 2.91 µM [rising, single point]

CCc1ccc(NC(=O)CCCn2nc(CC)n3c(cc4occc43)c2=O)cc1
cell number change: 10.3%
AC50 [1]: 29.1 µM [falling, single point]

COC(=O)c1ccc2[nH]c(CO)c(-c3ccccc3)c2c1
cell number change: -12.3%
AC50 [1]: 23.1 µM [rising, single point]

O=C(CNC(=O)c1ccc(-c2ccccc2)cc1)OCc1ccc(Br)cc1
cell number change: -20%
AC50 [1]: 16.4 µM [falling, single point]

CCN(CC(=O)Nc1c(F)cccc1F)C(=O)CN1C(=O)C2CCCCC2C1=O (stereo not given)
cell number change: 13.1%
AC50 [1]: 10.3 µM [rising, partial curve]

COC(=O)c1[nH]c2ccccc2c1NC(=O)c1ccccc1F
cell number change: 17.6%
AC50 [1]: 0.092 µM [rising, full curve, poor fit]

COCCn1c(SC)nnc1-c1c[nH]c2ccccc12
cell number change: 12.7%

N#Cc1cc(-c2ccccc2)nnc1Sc1ccccc1
AC50 [1]: 5.17 µM [rising, single point]

CCOC(=O)C1(CCc2ccccc2)CCN(Cc2cnc(N(C)C)s2)CC1
cell number change: 21.2%
AC50 [2]: 0.00461 µM [rising, full curve, poor fit]

CC(/C=N/Nc1nc(C)cc(=O)[nH]1)=C\c1ccccc1
cell number change: 12.4%
AC50 [1]: 6.51 µM [rising, full curve, poor fit]

CN(Cc1ccon1)C(=O)CC1C(=O)NCCN1CC1CCCCC1 (stereo not given)
cell number change: 4.65%
AC50 [1]: 0.146 µM [falling, full curve, poor fit]

CCC1=[N+]([O-])C(C)(/C(C)=N\O)N(O)C1(C)C (stereo not given)
cell number change: -66%
AC50 [2]: 29.1 µM [falling, single point]
AC50 [1]: 29.1 µM [falling, single point]

CCCS(=O)(=O)N1CCN(c2cc3c(cc2[N+](=O)[O-])n(C)c(=O)n3C)CC1
cell number change: -17.1%
AC50 [1]: 0.326 µM [falling, full curve, poor fit]

CC(C)(C)NC(=O)N1CCN(c2nc(-c3ccccc3)ns2)CC1
cell number change: 5.16%
AC50 [2]: 6.51 µM [rising, single point]

CC(C)(C)NC(=O)C(c1ccccn1)N(C(=O)c1ccc2c(c1)OCCO2)C1CCCC1 (stereo not given)
cell number change: -81.7%
AC50 [2]: 23.1 µM [falling, single point]
AC50 [1]: 29.1 µM [falling, single point]

CCOC(=O)Cc1csc(NC(=O)COc2ccccc2)n1
AC50 [1]: 0.411 µM [falling, full curve]

COc1ccccc1N1C(=O)S/C(=C\c2cccs2)C1=O
cell number change: 12.4%
AC50 [1]: 29.1 µM [rising, single point]

Cc1ccc2nc(-c3cccnc3)c(NC3CCCC3)n2c1
cell number change: 72.9%
AC50 [2]: 16.4 µM [rising, single point]

COc1ccc(CC(=O)NCc2nnc(SCC(=O)c3ccc(OC)cc3)n2C)cc1
cell number change: 15.7%

Cc1cccc(/C=C/c2onc(C)c2S(=O)(=O)N2CCC(C(=O)NC(C)(C)C)CC2)c1
cell number change: -5.48%

CCn1c(CNC(=O)Cc2ccc(OC)cc2)nnc1SCCOc1ccccc1
AC50 [2]: 3.26 µM [rising, single point]
AC50 [1]: 3.26 µM [rising, partial curve]

Nc1nonc1-n1nnc(C(=O)N/N=C/c2ccc(Cl)cc2Cl)c1CN1CCOCC1
cell number change: 4.76%
AC50 [2]: 0.461 µM [rising, full curve, poor fit]
AC50 [1]: 6.51 µM [falling, partial curve]

CC(=O)NCCOc1cccc2ccccc12
cell number change: 96.5%
AC50 [2]: 25.9 µM [rising, partial curve, poor fit]
AC50 [1]: 0.58 µM [rising, single point]

COc1nc(Oc2ccc(=O)[nH]n2)nc(N2CCOCC2)n1
cell number change: 19.5%
AC50 [2]: 0.651 µM [falling, single point]
AC50 [1]: 18.4 µM [rising, single point]

Cc1ccc(-n2c(=O)[nH]c3cc(C(=O)NC4CCN(Cc5ccccc5)CC4)ccc3c2=O)cc1
cell number change: -38.6%
AC50 [2]: 14.6 µM [falling, single point]
AC50 [1]: 29.1 µM [falling, single point]
